These are yes or no findings as the source states them, for the method shown. Some binding calls cover weakened binding; strength is not graded here.
Columns and labels:
[1] = target: T1, Sus scrofa p101 (porcine (Sus scrofa)) (UniProt O02696); experiment: co-purification (nickel affinity, streptavidin affinity, SEC); p110γ co-expressed in Sf9 with N-terminally 10xHis-2xStrep-tagged p84 or p101; complex purified through the tag on the regulatory subunit
T1 sequence: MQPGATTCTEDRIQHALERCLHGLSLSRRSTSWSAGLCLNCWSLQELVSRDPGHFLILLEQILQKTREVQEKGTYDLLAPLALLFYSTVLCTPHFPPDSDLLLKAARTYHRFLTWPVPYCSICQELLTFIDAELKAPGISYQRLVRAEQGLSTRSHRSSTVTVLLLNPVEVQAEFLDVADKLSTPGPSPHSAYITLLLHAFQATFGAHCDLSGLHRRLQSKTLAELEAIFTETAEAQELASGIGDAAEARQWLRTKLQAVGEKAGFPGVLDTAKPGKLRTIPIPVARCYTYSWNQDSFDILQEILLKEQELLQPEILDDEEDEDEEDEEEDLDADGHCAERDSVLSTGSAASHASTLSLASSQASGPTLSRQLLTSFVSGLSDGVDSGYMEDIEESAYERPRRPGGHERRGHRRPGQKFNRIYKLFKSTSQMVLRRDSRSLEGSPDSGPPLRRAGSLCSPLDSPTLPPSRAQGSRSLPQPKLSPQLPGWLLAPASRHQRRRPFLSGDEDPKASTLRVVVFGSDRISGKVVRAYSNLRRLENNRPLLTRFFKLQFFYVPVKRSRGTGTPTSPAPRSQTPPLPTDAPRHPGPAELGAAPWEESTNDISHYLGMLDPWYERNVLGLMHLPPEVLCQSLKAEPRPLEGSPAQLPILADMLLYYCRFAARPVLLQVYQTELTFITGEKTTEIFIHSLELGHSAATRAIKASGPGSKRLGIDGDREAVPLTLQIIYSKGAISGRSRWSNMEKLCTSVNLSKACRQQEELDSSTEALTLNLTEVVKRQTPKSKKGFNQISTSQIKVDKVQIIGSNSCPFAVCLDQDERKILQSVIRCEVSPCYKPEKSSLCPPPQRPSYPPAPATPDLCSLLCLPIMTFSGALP

By UniProt entry, the sequences of proteins in these tests, tags left out.
UniProt P48736: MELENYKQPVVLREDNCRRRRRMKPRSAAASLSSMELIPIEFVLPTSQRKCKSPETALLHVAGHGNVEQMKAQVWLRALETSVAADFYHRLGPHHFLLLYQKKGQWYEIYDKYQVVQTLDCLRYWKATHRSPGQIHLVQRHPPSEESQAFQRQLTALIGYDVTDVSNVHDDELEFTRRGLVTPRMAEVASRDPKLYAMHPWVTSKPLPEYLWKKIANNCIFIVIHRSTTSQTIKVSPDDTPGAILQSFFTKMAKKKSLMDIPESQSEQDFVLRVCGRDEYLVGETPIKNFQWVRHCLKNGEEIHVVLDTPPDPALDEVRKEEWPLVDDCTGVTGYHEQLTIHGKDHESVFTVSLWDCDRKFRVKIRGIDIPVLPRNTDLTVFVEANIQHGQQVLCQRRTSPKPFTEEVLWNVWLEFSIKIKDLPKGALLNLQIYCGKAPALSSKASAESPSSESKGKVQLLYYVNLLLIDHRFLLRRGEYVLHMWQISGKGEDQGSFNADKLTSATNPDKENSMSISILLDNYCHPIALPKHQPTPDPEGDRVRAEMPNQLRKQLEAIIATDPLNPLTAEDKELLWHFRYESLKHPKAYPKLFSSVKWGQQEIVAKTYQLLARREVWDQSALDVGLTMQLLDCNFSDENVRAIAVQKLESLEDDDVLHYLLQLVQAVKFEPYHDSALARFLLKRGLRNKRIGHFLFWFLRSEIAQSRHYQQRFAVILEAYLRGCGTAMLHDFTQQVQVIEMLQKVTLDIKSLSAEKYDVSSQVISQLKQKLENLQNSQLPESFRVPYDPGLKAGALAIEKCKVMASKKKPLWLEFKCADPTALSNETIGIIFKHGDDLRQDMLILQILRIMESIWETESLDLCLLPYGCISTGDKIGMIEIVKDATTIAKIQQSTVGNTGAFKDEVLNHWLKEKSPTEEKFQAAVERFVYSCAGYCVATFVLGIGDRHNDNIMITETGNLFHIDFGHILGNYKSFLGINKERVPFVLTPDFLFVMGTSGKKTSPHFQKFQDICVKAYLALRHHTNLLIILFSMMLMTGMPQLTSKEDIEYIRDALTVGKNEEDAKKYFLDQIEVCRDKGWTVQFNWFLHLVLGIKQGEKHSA

Mus musculus p84 (mouse) = target: T2, Mus musculus p84 (mouse) (UniProt Q3U6Q4); experiment: as above
T2 sequence: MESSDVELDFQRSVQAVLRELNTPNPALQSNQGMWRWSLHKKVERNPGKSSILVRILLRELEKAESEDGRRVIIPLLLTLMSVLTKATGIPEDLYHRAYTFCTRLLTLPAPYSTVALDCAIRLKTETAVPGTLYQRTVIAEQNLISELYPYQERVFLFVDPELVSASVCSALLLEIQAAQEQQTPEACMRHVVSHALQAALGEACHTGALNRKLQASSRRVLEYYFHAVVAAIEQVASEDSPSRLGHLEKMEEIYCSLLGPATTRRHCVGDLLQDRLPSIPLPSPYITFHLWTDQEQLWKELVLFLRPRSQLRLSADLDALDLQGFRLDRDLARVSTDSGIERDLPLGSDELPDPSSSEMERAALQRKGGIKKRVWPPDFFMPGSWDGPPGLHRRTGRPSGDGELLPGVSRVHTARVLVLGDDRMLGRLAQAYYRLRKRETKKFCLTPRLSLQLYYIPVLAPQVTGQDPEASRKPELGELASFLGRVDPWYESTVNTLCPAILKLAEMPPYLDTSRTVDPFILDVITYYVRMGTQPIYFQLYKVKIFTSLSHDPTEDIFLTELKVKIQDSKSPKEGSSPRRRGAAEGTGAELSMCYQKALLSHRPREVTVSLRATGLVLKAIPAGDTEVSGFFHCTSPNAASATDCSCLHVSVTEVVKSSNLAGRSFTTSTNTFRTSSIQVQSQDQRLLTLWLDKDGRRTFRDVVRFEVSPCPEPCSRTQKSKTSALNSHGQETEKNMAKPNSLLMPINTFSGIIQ

Q: Which results are given for “p110γ co-expressed with tagged p84 or p101 (from UniProt P48736 1-1102) (enzyme)”?
A: binding [1]: binds; binding (Mus musculus p84 (mouse)): binds
